Reference: paper doi:10.1101/2020.08.15.252130
For part of these data: Negatives hold for the conditions tested. For part of these data: Tags and fusion partners may be left off the protein sequences shown. For part of these data: The comparison behind a weaker result is the experiment's own reference, which may not be listed here. For part of these data: For at least one entry, the source does not settle the construct or the ends of the probe.

Assays:
[1] = target: T1, LS2 linker-RRM2 (Drosophila melanogaster) (UniProt Q9W1T4); assay: ITC; settings: 7 C, 1:1 molar ratio; residues 204-325
T1 sequence (looked up): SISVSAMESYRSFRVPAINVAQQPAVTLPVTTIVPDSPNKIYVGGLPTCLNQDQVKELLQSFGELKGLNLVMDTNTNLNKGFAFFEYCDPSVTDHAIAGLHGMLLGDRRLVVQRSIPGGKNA

[2] = target: LS2 RRM1,2 K192E,R194E (RRM1_beta5) (Drosophila melanogaster) (UniProt Q9W1T4); assay: NMR; settings: RRM1 contribution lost, RRM2 and linker kept; residues 110-325
[3] = target: T1, LS2 linker-RRM2 (Drosophila melanogaster); assay: NMR; settings: TMPyP4 (disrupts G4), overnight; residues 204-325
[4] = target: LS2 RRM1,2 GS_linker H197-P233,replaced,by,GGS-rich,linker,of,identical,length (Drosophila melanogaster) (UniProt Q9W1T4); assay: NMR; settings: linker contribution lost, both RRMs still bind; residues 110-325
[5] = target: LS2 RRM1,2 F285D,F287D (RRM2_RNP1) (Drosophila melanogaster) (UniProt Q9W1T4); assay: NMR; settings: RRM2 contribution lost, RRM1 and linker kept; residues 110-325
[6] = target: LS2 RRM2 (Drosophila melanogaster) (UniProt Q9W1T4); assay: NMR; settings: minor CSP; residues 242-319

Sequence	Kd [1]	binding result [2]	binding result [3]	binding result [4]	binding result [5]	binding result [6]
GGGGAGGAGGGGGGCGUAUGA [21-mer G4 RNA]	15.7 µM	binds more weakly	no binding	binds more weakly	binds more weakly	–
GGUGGUGG [8-mer]	–	–	–	–	–	binds more weakly
